Data as given in patent US20170196893A1, “TREATMENT OF INFLAMMATORY DEMYELINATING DISEASE WITH AGONISTS OF FARNESOID X RECEPTOR” (The Board of Trustees of the Leland Stanford Junior …, priority 2016, published 2017).
At least one compound was matched to its structure with a doubt left.

Tests used:
[1] = biological target: T1, farnesoid X receptor (FXR) (Homo sapiens, UniProt Q96RI1); conditions: compared with CDCA; cited from earlier work
T1 sequence (Q96RI1 1-486): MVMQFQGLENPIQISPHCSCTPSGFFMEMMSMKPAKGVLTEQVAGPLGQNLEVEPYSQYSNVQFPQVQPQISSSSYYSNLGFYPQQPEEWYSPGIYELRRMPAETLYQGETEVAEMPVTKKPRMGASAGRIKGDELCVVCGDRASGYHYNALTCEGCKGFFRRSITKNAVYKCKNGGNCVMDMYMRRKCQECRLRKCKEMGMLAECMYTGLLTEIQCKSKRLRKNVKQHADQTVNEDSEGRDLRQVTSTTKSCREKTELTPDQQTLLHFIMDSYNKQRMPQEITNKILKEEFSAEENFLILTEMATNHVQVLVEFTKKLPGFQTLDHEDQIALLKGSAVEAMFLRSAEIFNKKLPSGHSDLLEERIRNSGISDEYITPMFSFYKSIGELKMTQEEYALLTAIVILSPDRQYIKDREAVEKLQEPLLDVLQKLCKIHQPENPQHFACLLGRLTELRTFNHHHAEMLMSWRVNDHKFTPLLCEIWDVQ

splenocytes = assay: Cytokine production (ELISA) by splenocytes harvested from treated mice, restimulated with MOG35-55; assay type: in vivo, mouse; conditions: for IFN-gamma production in response to MOG35-55: vs vehicle (FIG. 2C)
Procedure: (§1) Proliferation and cytokine assays. Splenocytes and lymph nodes were harvested and stimulated with increasing concentrations of MOG35-55 for a total of 72 hours. For assessment of proliferation, 1 μCi of ^3H-thymidine was added to each well for the final 18-24 hours of culture, and incorporation of radioactivity was measured by using a Betaplate scintillation counter. Cytokine assays were performed on culture supernatants after 72 hours of culture by using the IL-2, IL-6, IFNgamma, and TNF BD OptEIA™ Mouse ELISA kits (BD Biosciences) or Mouse IL-17 DuoSet ELISA Development kit (R&D Systems).

[2] = test system: experimental autoimmune encephalomyelitis (EAE); assay: Active EAE, clinical scores of mice with established EAE; assay type: in vivo, mouse
[3] = test system: MOG35-55-specific lymphocytes; assay: 72 h proliferation assay (3H-thymidine) of splenocytes/lymph node cells harvested from treated mice, restimulated with MOG35-55; assay type: in vivo, mouse
Procedure: as §1

[4] = Serum lipid panel analysis of treated MOG35-55-immunized mice fasted overnight; assay type: in vivo, mouse; conditions: eleven days of oral dosing after EAE immunization, overnight fast (FIG. 4A)
From the text: Serum Lipid Panel Analysis. Serum from mice fasted overnight was submitted to the Diagnostic Laboratory at Stanford University, Department of Comparative Medicine for a full lipid panel analysis.

[5] = daily oral treatment of established EAE (FIG. 3D)
[6] = oral vs i.p. experiment (FIG. 2C)

## CC[C@H]1[C@@H](O)[C@@H]2[C@H](CC[C@]3(C)[C@@H]([C@H](C)CCC(=O)O)CC[C@@H]23)[C@@]2(C)CC[C@@H](O)C[C@@H]12 [6-ECDCA, 6α-Ethyl-chenodeoxycholic acid]
[1]
  FXR agonistic activity relative to CDCA: ~100 fold
splenocytes; [5]
  IFN-gamma production: decreased
  IL-6 production: increased
  IL-17 production: not significantly altered
  TNF production: decreased
splenocytes; intraperitoneal treatment
  IFN-gamma production in response to MOG35-55: reduced
splenocytes; oral treatment (FIG. 2C)
  IL-17 production: reduced
splenocytes; oral treatment
  IFN-gamma production in response to MOG35-55: reduced
splenocytes; [6]
  IL-2 production: enhanced
  IL-6 production: not significantly altered
  TNF production: not significantly altered
[2]; 5 mg/kg daily intraperitoneal (FIG. 2A)
  Clinical EAE score: less effective than oral administration
[2]; 5 mg/kg daily oral, 6-ECDCA vs CDCA vs vehicle (FIG. 3B)
  Clinical EAE score (average EAE disease grade): more effective than CDCA
[3]; daily oral treatment of established EAE (FIG. 3C)
  T cell recall responses to MOG35-55: significantly suppressed
[3]; eleven days of oral dosing, combined splenocytes and lymphocytes, vs vehicle (FIG. 4B)
  Recall responses of MOG35-55-specific lymphocytes (proliferation): greatly reduced
[3]; mice treated orally, vs vehicle or i.p. (FIG. 2B)
  T cell proliferation to MOG35-55: significantly reduced
[4]
  Serum HDL levels: decreased
  Serum cholesterol levels: decreased
  Serum low-density lipoprotein (LDL) levels: not significantly altered
  Serum triglycerides: not significantly altered
